Results on 28 sequences are retold here after PubChem BioAssay AID1347423 (Functional Genomics Laboratory (NCATS/FGL), 2020).

The campaign covered roughly 52,000 sequences. About 210 (0.4%) were called active.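 The calls were made as follows: active = gene whose silencing raises cell survival under the drug, median off-target-corrected z-score across its silencing RNAs 2 or more; inactive = the rest.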 The list shows a part of the results.

The nature of the assay: Resistance to Poly (ADP-Ribose) Polymerase inhibitor: Gene Identification via Genome-wide siRNA Screen. The settings on record: mouse BRCA2 R2336H ES cells, olaparib, CellTiter-Glo viability; stronger effect = higher value. The method in brief:
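Mouse BRCA2 R2336H ES cells were reverse-transfected with siRNA (20 nM final), treated at 48 h with 500 nM olaparib, and read by CellTiter-Glo after 72 h. Scores: MAD-based z per siRNA, median per gene, seed off-target correction.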
“GGGUUUUGUCAAUCAAAUATT against 1500031M22Rik”: the z-score was inactive: -0.348.

Regarding “GGGAGAAGAAAUGGUUUAATT against B230315M08Rik”, the z-score was active: 1.54.

For the sequence “GGCUUUUCAGACCAAGCUUTT against 3830406C13Rik”, the z-score was inactive: 0.18.

On to UGGUCACCUUUCUCUUAUUTT against Tas2r137, for which the z-score is inactive: -0.39.

For “GGUUGACUUUGUAACUCAATT against 2610037M15Rik”, the z-score was inactive: -0.665.

Turning to GGCUGAAAGUGAAGAAACGTT against Srp68, the z-score is inactive: -2.51.

Turning to “CCACCAGAUACAGGAUCUATT against 6430517E21Rik”, the z-score was inactive: -1.81.

On to GGAGAGAUAUCUUUGGUGGTT against Slc27a4, for which the z-score is inactive: -0.0625.

Consider GGUGGUGAGAUAGAGAAAUTT against C1qg, for which the z-score was inactive: -2.11.

With GGGUAUACGGCAUUUCCUATT against Rad9b, the z-score was inactive: -0.255.

As for GACAUUGUCUGAUUUUGGATT against V1rg9, the z-score is inactive: 0.139.

As to GGAGGAAGUGAACAAAAUGTT against Afp, the z-score is inactive: -0.134.

Regarding “GGUGAAAGUGAGAAGGAAGTT against 6720460F02Rik”, the z-score is inactive: -0.247.

For CGUGUCAUACAGGUGUGGUTT against Lhx8, the z-score was inactive: 0.00267.

As for CGGCAACUUUCUGAACAUCTT against Nfix, the z-score was inactive: -0.427.

Consider “CCGCUUUAAGGCACAUCCATT against 4933400K24Rik”, for which the z-score was inactive: 1.09.

Regarding “GGUGCUUCUGGAAAAGUUGTT against 3732409C05Rik”, the z-score was inactive: -0.891.

Consider GGUACAGAGAUCUAAGACUTT against Opn4, for which the z-score was inactive: -1.06.

Turning to “CUGAAUCAGAUAAAGAGUUTT against Hist2h2aa1”, the z-score was inactive: -1.1.

As for GGAGGUAUUUACCAAAGAUTT against CRG-L1, the z-score was inactive: -0.876.

For UGAAGGCAAAUCACUCUUUTT against Olfr181, the z-score is inactive: 0.00802.

Consider GCCACUUUUGUCAAGGAAATT against Supt16h, for which the z-score was inactive: -2.47.

For the sequence “GACUCUCCUGCUUUUACCUTT against 1700019G17Rik”, the z-score was inactive: -0.537.

Consider “CCAAGCUUCCUUCUAAAUATT against 5830457H20Rik”, for which the z-score was inactive: 0.139.

Turning to GGCCUGAUGGAAUUAUAGATT against Wdr31, the z-score is inactive: -0.44.

As for GGAUUUUUGUGAGUCUAAGTT against Sdro, the z-score is inactive: 0.796.

Turning to UUUCCAGUCUCGCCCGAUUTT against Elmo1, the z-score is inactive: -0.784.

As to CCUGCUACUAUUGAAGUUGTT against Gtf3c2, the z-score was inactive: 1.59.
